These are yes or no findings as the source states them, for the method shown. In cells and extracts the contact can be indirect. Tags and fused reporters may be left off the sequences shown.

The target of the assay is T1, Mbp1 yEmVenus PCA fusion protein (S. cerevisiae) (UniProt P39678).
T1 sequence: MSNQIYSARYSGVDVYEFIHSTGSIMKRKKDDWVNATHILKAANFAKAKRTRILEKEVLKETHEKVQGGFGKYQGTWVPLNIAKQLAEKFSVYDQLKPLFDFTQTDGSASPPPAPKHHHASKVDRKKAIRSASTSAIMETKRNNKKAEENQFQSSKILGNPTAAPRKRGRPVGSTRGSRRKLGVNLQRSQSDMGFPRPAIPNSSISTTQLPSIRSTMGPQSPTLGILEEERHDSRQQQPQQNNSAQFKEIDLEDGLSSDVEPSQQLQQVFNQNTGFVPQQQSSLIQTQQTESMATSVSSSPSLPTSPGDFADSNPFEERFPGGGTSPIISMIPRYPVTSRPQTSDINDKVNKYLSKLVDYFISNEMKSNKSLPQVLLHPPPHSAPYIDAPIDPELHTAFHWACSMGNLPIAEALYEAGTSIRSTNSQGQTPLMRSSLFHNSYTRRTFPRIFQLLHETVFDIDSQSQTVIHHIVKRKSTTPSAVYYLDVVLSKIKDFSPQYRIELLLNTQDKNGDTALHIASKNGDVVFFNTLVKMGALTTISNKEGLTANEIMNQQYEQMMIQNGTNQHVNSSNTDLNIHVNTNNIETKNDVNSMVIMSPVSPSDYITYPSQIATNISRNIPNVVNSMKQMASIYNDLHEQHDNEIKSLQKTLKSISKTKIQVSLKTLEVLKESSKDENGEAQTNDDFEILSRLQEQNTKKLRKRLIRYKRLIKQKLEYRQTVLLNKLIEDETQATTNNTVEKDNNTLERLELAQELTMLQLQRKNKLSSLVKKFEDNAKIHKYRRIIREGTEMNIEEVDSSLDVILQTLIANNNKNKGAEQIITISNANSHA
The experiment in a line: split reporter; yeast enhanced monomeric Venus (yEmVenus) protein-fragment complementation assay (PCA); VF[1] and VF[2] fusions co-expressed from p413ADHcen and p415ADHcen in wild-type MatA (BY4741) yeast; fluorescence microscopy of living cells at room temperature with image analysis (threshold 225 against autofluorescence of mock cells); the three Cdc28 PCAs with Swi4, Swi6 and Mbp1 were also read in 30 deletion strains and in elm1T551A.

B1: Swi4-VF[2] fusion protein (protein, UniProt P25302 1-1093)
chain: MPFDVLISNQKDNTNHQNITPISKSVLLAPHSNHPVIEIATYSETDVYECYIRGFETKIVMRRTKDDWINITQVFKIAQFSKTKRTKILEKESNDMQHEKVQGGYGRFQGTWIPLDSAKFLVNKYEIIDPVVNSILTFQFDPNNPPPKRSKNSILRKTSPGTKITSPSSYNKTPRKKNSSSSTSATTTAANKKGKKNASINQPNPSPLQNLVFQTPQQFQVNSSMNIMNNNDNHTTMNFNNDTRHNLINNISNNSNQSTIIQQQKSIHENSFNNNYSATQKPLQFFPIPTNLQNKNVALNNPNNNDSNSYSHNIDNVINSSNNNNNGNNNNLIIVPDGPMQSQQQQQHHHEYLTNNFNHSMMDSITNGNSKKRRKKLNQSNEQQFYNQQEKIQRHFKLMKQPLLWQSFQNPNDHHNEYCDSNGSNNNNNTVASNGSSIEVFSSNENDNSMNMSSRSMTPFSAGNTSSQNKLENKMTDQEYKQTILTILSSERSSDVDQALLATLYPAPKNFNINFEIDDQGHTPLHWATAMANIPLIKMLITLNANALQCNKLGFNCITKSIFYNNCYKENAFDEIISILKICLITPDVNGRLPFHYLIELSVNKSKNPMIIKSYMDSIILSLGQQDYNLLKICLNYQDNIGNTPLHLSALNLNFEVYNRLVYLGASTDILNLDNESPASIMNKFNTPAGGSNSRNNNTKADRKLARNLPQKNYYQQQQQQQQPQNNVKIPKIIKTQHPDKEDSTADVNIAKTDSEVNESQYLHSNQPNSTNMNTIMEDLSNINSFVTSSVIKDIKSTPSKILENSPILYRRRSQSISDEKEKAKDNENQVEKKKDPLNSVKTAMPSLESPSSLLPIQMSPLGKYSKPLSQQINKLNTKVSSLQRIMGEEIKNLDNEVVETESSISNNKKRLITIAHQIEDAFDSVSNKTPINSISDLQSRIKETSSKLNSEKQNFIQSLEKSQALKLATIVQDEESKVDMNTNSSSHPEKQEDEEPIPKSTSETSSPKNTKADAKFSNTVQESYDVNETLRLATELTILQFKRRMTTLKISEAKSKINSSVKLDKYRNLIGITIENIDSKLDDIEKDLRANA
For the molecule B1, the binding entry is recorded as “no binding”.

The record behind these values is publication PMC2198942.
